Reference: PubChem BioAssay AID540256 (National Center for Advancing Translational Sciences (NCATS), 2011)
In all, about 300,000 compounds went through this assay and about 3,700 (1.2%) were called active. The inconclusive results got no clear call from the source; some entries with a clear call stand among them for comparison. Calls come from the whole dose curve; tested in HEK293 cells. Potencies of inconclusive entries are doubtful fits and often do not repeat.

experiment: qHTS for Inhibitors of binding or entry into cells for Lassa Virus; conditions: Lassa virus pseudotype entry inhibition, cell reporter; activity change, negative = inhibition: at 37.9 µM (top of the series) unless noted; note: nearly all actives have a fitted effect of over 50% in size
% is set by controls: 0 for no effect and ±100 for the full control effect; potency is the fitted concentration of half-maximal effect.

Compound | Potency | activity change, negative = inhibition
CCOc1ccc(C(=O)Nc2cccc(C(=O)O)c2)cc1Cl | inconclusive: 7.08 µM [inhibitor, partial curve, poor fit] | 
COc1ccc(C2=Nn3c(nnc3-c3ccccc3OC)SC2)cc1OC | inconclusive: 0.251 µM [inhibitor, full curve, poor fit] | 
CCOc1ccccc1NC(=O)c1cc2c(=O)oc3ccccc3c2s1 | inconclusive: 4.47 µM [activator, single point] | 
CCN(CC)S(=O)(=O)c1ccc(/C=C/C(=O)OCC(=O)NCc2ccco2)cc1 |  | inactive: -5.66%
Cc1cccc(C)c1-n1ncc(C(=O)N2CCN(c3ccccc3)CC2)c1C1CCN(C(=O)OC(C)(C)C)CC1 | inconclusive: 1 µM [inhibitor, full curve] | 
CCOc1ccc(S(=O)(=O)Nc2ccc3c(c2)N(C(C)=O)CCC3)cc1 | inconclusive: 7.08 µM [inhibitor, full curve, poor fit] | 
O=C(NCCN1CCOCC1)c1ccc(Cl)c(S(=O)(=O)N2CCCCC2)c1 | inconclusive: 6.31 µM [inhibitor, single point] | 
COc1ccccc1N1CCN(C(=O)CN(Cc2ccc(Cl)cc2)S(C)(=O)=O)CC1 | inconclusive: 5.8 µM [inhibitor, full curve, poor fit] | 
O=C(Cc1ccccc1)Nc1cccc(-c2cn3cccnc3n2)c1 | inconclusive: 35.5 µM [activator, single point] | 
Cc1c(C(=O)NCc2c(F)cc(F)cc2F)oc2ccc(S(=O)(=O)N3CCOCC3)cc12 | inconclusive: 0.794 µM [inhibitor, single point] | 
COc1ccc(COC(=O)C2=C(C)NC(=O)NC2c2ccc(O)c(OC)c2)cc1 (stereo not given) | inconclusive: 23.1 µM [inhibitor, partial curve, poor fit] | 
COc1ccccc1C(=O)N(Cc1ccco1)C1CCS(=O)(=O)C1 (stereo not given) |  | inactive: 3.45%
COC(=O)c1ccc(N2C(=O)C3CC(C)=C(C)CC3C2=O)cc1 (stereo not given) | inconclusive: 6.31 µM [activator, partial curve, poor fit] | 
Brc1ccc(-c2cn3nc4c(nc3n2)CCCC4)cc1 | inconclusive: 3.16 µM [inhibitor, partial curve] | 
COC(=O)C(Cc1ccccc1)NC(=O)CNC(=O)c1ccc(Br)o1 (stereo not given) |  | inactive: -2.65%
COc1ccc(-c2cn(-c3ccc(C)cc3C)c(=S)[nH]2)cc1OC | inconclusive: 10 µM [inhibitor, partial curve, poor fit] | 
CCOC(=O)c1cc(NC(=O)c2cnccn2)cc(C(=O)OCC)c1 |  | inactive: 24.2% [at 14.3 µM]
Cc1ccc(CNC(=O)C2(NC(=O)Nc3ccc(C)cc3)CCCCC2)cc1 | inconclusive: 20.6 µM [inhibitor, partial curve, poor fit] | 
COCCN1C(=O)c2[nH]nc(-c3cc(C)ccc3O)c2C1c1ccc(C(C)C)cc1 (stereo not given) | inconclusive: 4.47 µM [inhibitor, partial curve, poor fit] | 
O=C(O)c1ccc(N=Cc2c(O)ccc3ccccc23)cc1 |  | inactive: -2.63% [at 46.1 µM]

An excerpt from above in order of molecular weight, low to high:
Compound | Potency | activity change, negative = inhibition
CCOC(=O)c1cc(NC(=O)c2cnccn2)cc(C(=O)OCC)c1 |  | inactive: 24.2% [at 14.3 µM]
COc1ccc(C2=Nn3c(nnc3-c3ccccc3OC)SC2)cc1OC | inconclusive: 0.251 µM [inhibitor, full curve, poor fit] | 
O=C(NCCN1CCOCC1)c1ccc(Cl)c(S(=O)(=O)N2CCCCC2)c1 | inconclusive: 6.31 µM [inhibitor, single point] | 

More structures follow.

Compound | Potency | activity change, negative = inhibition
CC1(C)CC(=O)C=C(Nc2ccccc2N)C1 |  | inactive: 0.0429%
COc1ccc(OC)c(NC(=O)c2c(NCc3cccs3)sc3c2CCCC3)c1 | inconclusive: 10 µM [inhibitor, partial curve, poor fit] | 
CCn1ncc(Cl)c1C(=O)NC(=S)Nc1c(C)cc(C)cc1[N+](=O)[O-] | inconclusive: 32.6 µM [inhibitor, single point] | 
C/C(CC(=O)Nc1cc(Cl)ccc1Cl)=N\NC(N)=S | inconclusive: 29.1 µM [inhibitor, single point] | 
CC(=NCc1ccc2c(c1)OCO2)c1c(O)n(-c2ccc(C)cc2)c(=O)[nH]c1=O | inconclusive: 35.5 µM [inhibitor, partial curve, poor fit] | 
O=C(NCc1ccc(F)cc1)c1ccccc1OCc1ccccc1 | inconclusive: 12.6 µM [inhibitor, partial curve, poor fit] | 
CCCN(CCC)S(=O)(=O)c1ccc(C(=O)N2CC3CCC(CC3)C2)cc1 | inconclusive: 11.2 µM [inhibitor, partial curve] | 
Cc1ccc(-c2nc3ccccc3o2)cc1NC(=S)NC(=O)/C=C/c1ccco1 | inconclusive: 7.08 µM [inhibitor, partial curve, poor fit] | 
Cc1ccccc1OCC(O)Cn1c(=N)n(CCN2CCCCC2)c2ccccc21 (stereo not given) | inconclusive: 22.4 µM [inhibitor, single point] | 
COC(=O)c1ccc(CN2CCCC(CO)(Cc3ccc(F)cc3F)C2)cc1 (stereo not given) |  | inactive: -28.7% [at 46.1 µM]
O=S(=O)(c1ccc(Oc2ncnc3scc(-c4ccccc4)c23)cc1)N1CCOCC1 | inconclusive: 11.2 µM [inhibitor, partial curve] | 
CC(C)c1ccc(NC(=O)Cn2c(=O)n(CCc3ccccc3)c(=O)c3ccccc32)cc1 |  | inactive: 19.8% [at 46.1 µM]
N#C/C(=C\c1cccs1)C(=O)NCC1CCCO1 (stereo not given) | inconclusive: 7.3 µM [activator, partial curve, poor fit] | 
Cc1ccc(Nc2nnc(-c3ccc(C)c(S(=O)(=O)NCc4nc5ccccc5[nH]4)c3)c3ccccc23)cc1 | inconclusive: 14.1 µM [inhibitor, partial curve, poor fit] | 
CCCc1nc2ccccc2c(=O)n1/N=C/c1ccc(O)cc1 | inconclusive: 11.2 µM [inhibitor, partial curve] | 
Cc1ccccc1-c1nc(-c2ccc(NC(=O)c3ccc4c(c3)OCO4)cc2)no1 | inconclusive: 13 µM [inhibitor, single point] | 
O=C(CCN1C(=O)c2ccccc2S1(=O)=O)NCc1ccco1 |  | inactive: 3.81%
C=CCn1c(O)c(C(CC)=Nc2ccc(N(CC)CC)cc2)c(=O)[nH]c1=O | active: 3.26 µM | 
COc1ccc(NC(=O)c2c(NC(=O)CNCC(C)C)sc3c2CCC3)c(OC)c1 | inconclusive: 0.562 µM [inhibitor, full curve, poor fit] | 
CCOC(=O)CN(C(=O)Cn1nnc2ccccc21)C(C(=O)NCCOC)c1ccccc1 (stereo not given) | inconclusive: 0.562 µM [activator, full curve, poor fit] | 
